From publication PMC9933715 (Antimicrobial Agents and Chemotherapy, 2023)
Read-outs that look alike come from different tables or passages of the source.

How the values were obtained:
[1] = system: DENV-R2A (Rluc-expressing DENV, serotype 2 strain 16681); assay: microbe, parasite or virus in culture; type: cell-based, Dengue virus; details: for activity at 50 µM: Dengue virus, Huh7.5, 48 h
[2] = system: Huh7.5 cells; assay: Cell viability, CellTiter-Glo luminescent assay

O=C(Nc1ccccc1)c1ccccc1 [Compound 66]
activity at 50 µM ([1]; read-out: DENV-R2A replication (Fold DMSO), 6A1HI analogues, test concentration = 50 µM, Huh7.5 cells): 83% | activity at 50 µM ([1]; read-out: DENV-R2A replication (fold DMSO), Table 1, NPP3C analogues, 50 μM, Huh7.5, 2 days postinfection): 134% | antiviral activity against DENV-R2A (SAR, in words) ([1]; NPP3C analogues, 50 μM): abrogated the antiviral activity | Cell viability (Fold DMSO) ([2]; 6A1HI analogues, test concentration = 50 µM, Huh7.5 cells): 1.01 Fold DMSO | Cell viability (Fold DMSO) ([2]; Table 1, NPP3C analogues, 50 μM, Huh7.5, 2 days): 0.88 fold DMSO | Cell viability (Fold DMSO) ([2]; Table S3, NPP3C analogues, 50 µM, Huh7.5): 0.88 Fold DMSO
